Here are results for 56 compounds from PubChem BioAssay AID2685 (National Center for Advancing Translational Sciences (NCATS), 2010).

The list shows a part of the results. The main result of the screen is listed elsewhere. These columns were measured beside it and carry no call. Most of these compounds were active or inconclusive in the main read-out, so they are no random draw. The note in brackets gives the kind of curve behind each potency; many fits are weak.

The assay is described as follows: qHTS Assay for Lipid Storage Modulators in Drosophila S3 Cells.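 For cell number change: cells counted by Cell Tracker Red CMTPX staining in the red channel.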 Particulars: BODIPY lipid droplet fluorescence, 18-24 h; for cell number change: measured here: cell count max response, cells fed with added oleic acid. In a few lines:
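Drosophila S3 cells got compounds at several concentrations plus oleic acid (400 uM solution). Laser-scanning cytometry with 488 nm excitation read lipid droplets at 500-530 nm and cells at 575-640 nm. Percent activity was relative to 20 uM Triacsin C.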
A general note: Quantitative high-throughput screening tests each substance at several concentrations.

Setting [1] is: measured here: lipid fluorescence (Fed channel) AC50, cells fed with added oleic acid.
The mark [2] stands for this setting: measured here: cell number channel AC50, cells fed with added oleic acid.

For `CC(=O)c1cc2c(cc1N(C(=O)Cn1nnc3ccccc31)C(C(=O)NCCC(C)C)c1cccnc1)OCO2` (stereo unspecified), under setting [1], the AC50 was 2.59 µM [rising, single point].

`O=C(CCCCCNC(=S)Nc1ccccc1)C[N+](=O)[O-]`: under setting [1], the AC50 was 0.116 µM [falling, full curve, poor fit].

Regarding `CCN(CC)C(=O)COc1ccc2c3c(c(=O)oc2c1C)CCCC3`, the cell number change amounted to 1.1%. Further, under setting [1], the AC50 is 29.1 µM [rising, single point].

Regarding `COc1cc(C=O)ccc1OCC(=O)N1CCOCC1`, the cell number change is -6.94%. Also, the AC50 under setting [1] is 29.1 µM [falling, single point].

On to `CCSc1nnc(NC(=O)CSc2nc3c(c(=O)n2CCOC)SC(C)C3)s1` (stereo unspecified), for which the cell number change was -53.5%. Moreover, under setting [2], the AC50 was 10.3 µM [falling, partial curve]. The AC50 under setting [1] is 9.2 µM [falling, partial curve].

In the case of `O=C(NCCCN1CCCC1=O)c1cn(-c2ccccc2)nc1-c1ccccc1`, the cell number change was 17.5%. For the same compound, the AC50 under setting [1] is 16.4 µM [rising, single point].

Turning to `O=C(c1cnn2c(C(F)F)cc(C3CC3)nc12)N1CCOCC1`, the cell number change amounted to 31%. For the same compound, the AC50 under setting [2] was 25.9 µM [rising, single point]. Also, the concentration at half-maximal activity (AC50) under setting [1] was 0.13 µM [falling, single point].

As to `O=c1[nH]c2cc(Cl)cc(Cl)c2[nH]c1=O`, the cell number change was found to be 20%. Also, the AC50 under setting [1] was 14.6 µM [rising, single point].

In the case of `Cc1ccccc1-n1c(SCC(=O)Nc2ccccc2Cl)nc2n[nH]c(C)c2c1=N`, the cell number change is -36.2%. Further, under setting [2], the AC50 was 29.1 µM [falling, single point]. Also, the AC50 under setting [1] is 16.4 µM [falling, partial curve].

In the case of `CC1Cc2ccccc2N1C(=O)c1nn(C)cc1Br` (stereo unspecified), the cell number change worked out at 20.6%.

Take `COc1ccc(CC(=O)Nc2cc(S(=O)(=O)N3CCCC3)ccc2Cl)c(OC)c1`: the cell number change is 4.35%. Also, the AC50 under setting [1] was 20.6 µM [rising, single point].

`CC(C)OCCCN(C)C1CCN(S(=O)(=O)c2ccc(-c3ccc(=O)[nH]n3)s2)CC1`: the cell number change is -15.3%. The AC50 under setting [1] was 5.8 µM [falling, single point].

On to `COc1ccc(S(=O)(=O)N2CCCCC2)cc1NC(=O)CCc1nc2ccccc2c(=O)[nH]1`, for which the cell number change was -7.85%. For the same compound, the AC50 under setting [2] is 0.184 µM [rising, full curve]. Further, under setting [1], the AC50 is 0.0651 µM [rising, full curve, poor fit].

On to `O=C(CO/N=C/c1ccccc1OC(F)F)NCc1ccco1`, for which the cell number change turned out to be 13.1%. The AC50 under setting [1] is 18.4 µM [rising, single point].

For `Cc1ccc(S(N)(=O)=O)cc1NC(=O)C(c1ccccc1)c1ccccc1`, the cell number change was -6.91%. For the same compound, under setting [1], the AC50 is 0.231 µM [rising, full curve, poor fit].

`CC1CC(C)(C)CC2(C1)NC(=O)N(CC(=O)N1CCN(S(=O)(=O)c3cccs3)CC1)C2=O` (stereo unspecified): the cell number change is -26.3%. The AC50 under setting [1] is 6.51 µM [falling, partial curve, poor fit].

`CC(Cc1cccs1)NC(=S)Nc1ccc(F)cc1` (stereo unspecified): the cell number change is 68.3%. Also, the AC50 under setting [2] is 29.1 µM [rising, single point]. Further, the AC50 under setting [1] was 16.4 µM [rising, partial curve].

On to `COCCn1c(SCC#N)nnc1-c1ccccc1`, for which the cell number change was -3.88%.

Regarding `Cc1cc(NC(=O)COC(=O)c2cccc(S(=O)(=O)N(C)C3CCCCC3)c2)no1`, the cell number change was -13.7%. Also, the AC50 under setting [1] is 8.2 µM [falling, partial curve, poor fit].

As for `CCCN1CCC(=O)N([C@H](CSc2ccc(Br)cc2)c2ccccc2)CC1`, the cell number change turned out to be 18.8%. For the same compound, under setting [2], the AC50 is 0.731 µM [rising, full curve, poor fit].

With `CC(C)[C@H](NS(=O)(=O)c1cccc(Cl)c1)C(=O)OCC(=O)NC(=O)CN1CCCC1=O`, the cell number change stood at 14.1%. For the same compound, the AC50 under setting [1] was 1.84 µM [rising, partial curve].

In the case of `CCOc1cccc(C2C(C(=O)c3ccc(C)o3)=C(O)C(=O)N2Cc2ccccc2)c1` (stereo unspecified), the cell number change came to 5.25%.

Turning to `Cc1cnc(C(=O)OCC(=O)N(C(C)C)C(C)C)cn1`, the cell number change amounted to 17.4%.

Take `COC(=O)C1C(=O)C2=C(CC1C)NC(C)=C(C(=O)OCCOc1ccccc1)C2c1ccc(C)o1` (stereo unspecified): the cell number change was -20.7%. In addition, the AC50 under setting [1] was 29.1 µM [falling, single point].

As for `COc1ccc(N(CC(=O)N2CCCCC2)S(=O)(=O)c2c(C)nn(C)c2C)cc1`, the cell number change is -1.96%. Besides, under setting [2], the AC50 is 0.651 µM [falling, single point].

As to `CCN(CC)c1ccc2cc(S(=O)(=O)c3ccc(Cl)cc3)c(=O)oc2c1`, the cell number change amounted to 3.12%. Moreover, under setting [1], the AC50 is 6.51 µM [rising, single point].

For `CCOc1ccc(NS(=O)(=O)CC23CCC(CC2=O)C3(C)C)cc1` (stereo unspecified), the cell number change was found to be 9.68%. Moreover, under setting [1], the AC50 was 2.06 µM [rising, single point].

In the case of `CCn1c(NC(=O)c2cccs2)nc2ccccc21`, the cell number change is -30.8%. Also, the AC50 under setting [2] was 1.64 µM [falling, full curve, poor fit].

Regarding `O=C(Nc1cccnc1)c1cc2c(s1)-c1ccccc1OC2`, the cell number change is -56%.

For the compound `O=C(N/N=C/c1coc2ccccc2c1=O)c1cc2ccccc2o1`, the cell number change amounted to 13.5%. Further, under setting [1], the AC50 was 3.66 µM [falling, partial curve].

For the compound `CSc1ncccc1C(=O)NC1CCCc2c1cnn2-c1ccc(C)c(C)c1` (stereo unspecified), the cell number change is 32.1%. The AC50 under setting [2] is 1.3 µM [falling, partial curve]. In addition, under setting [1], the AC50 was 1.03 µM [falling, full curve].

As for `COc1ccc2oc3cc(C)[n+]([O-])c(-c4ccc(C)cc4)c3c2c1`, the cell number change was determined as 65.7%. For the same compound, under setting [2], the AC50 was 32.6 µM [rising, single point].

In the case of `CCCNC(=O)C1CCN(S(=O)(=O)c2cccs2)CC1`, the AC50 under setting [1] was 0.58 µM [falling, single point].

As for `CCOC(=O)N1CCN(C(=O)CS(=O)Cc2nc(-c3cccc(C)c3)oc2C)CC1` (stereo unspecified), the cell number change came out at 16.1%. For the same compound, the AC50 under setting [2] was 0.00411 µM [rising, full curve, poor fit]. Besides, the AC50 under setting [1] is 10.3 µM [rising, partial curve, poor fit].

In the case of `COc1ccc(-n2ncc3c2CC(C)(C)CC3NC(=O)c2oc(C)cc2C)cc1` (stereo unspecified), the cell number change is -13.4%. Further, the concentration at half-maximal activity (AC50) under setting [1] was 0.517 µM [falling, full curve].

On to `O=C(c1ccc(-n2cncn2)c([N+](=O)[O-])c1)N1CCN(S(=O)(=O)c2ccccc2F)CC1`, for which the AC50 under setting [2] is 6.51 µM [falling, single point].

As for `CC(OC(=O)c1ccc(Cl)c([N+](=O)[O-])c1)C(=O)N1CCN(Cc2ccccc2)CC1` (stereo unspecified), the cell number change was 27.3%. The AC50 under setting [1] was 0.517 µM [rising, single point].

For `Cc1ccccc1N1CCN(C(=O)c2ccccc2NC(=O)C2CC=CCC2C(=O)O)CC1` (stereo unspecified), the cell number change was found to be 20.7%. The half-maximal activity concentration (AC50) under setting [1] is 6.51 µM [rising, partial curve, poor fit].

Take `CCCCCN(C(=O)CCC(=O)OC(C)C(=O)NC1CCCCC1)c1c(N)n(CCCC)c(=O)[nH]c1=O` (stereo unspecified): the cell number change is 9.94%.

`Cc1cc(=O)oc2c(CN3CCN(C)CC3)c(O)c(Cl)cc12`: the cell number change was -18%. In addition, under setting [2], the AC50 is 6.51 µM [falling, partial curve, poor fit].

On to `O=C1NCC(c2ccccc2)C1C(=O)N/N=C\c1ccc(-c2cccc(Cl)c2Cl)o1` (stereo unspecified), for which the cell number change is -51.8%. The AC50 under setting [2] is 29.1 µM [falling, single point]. Also, the AC50 under setting [1] is 0.731 µM [rising, full curve].

With `Cc1nn(C(C)(C)C)c(C)c1/C=N/OC(=O)Nc1ccc(Cl)c(Cl)c1`, under setting [1], the AC50 was 1.3 µM [rising, full curve, poor fit].

Regarding `CCCc1cc(=O)oc2cc(C)cc(OCc3nn[nH]n3)c12`, the cell number change came out at 0.407%. Moreover, the AC50 under setting [1] is 2.59 µM [rising, single point].

In the case of `Cc1ccc2cc(/C=N/NC(=O)c3ccccc3[N+](=O)[O-])c(Cl)nc2c1`, the cell number change was 2.7%. Also, the AC50 under setting [1] is 0.651 µM [falling, single point].

On to `O=[N+]([O-])c1ccc(N2N=C(c3ccccc3)CC2c2ccccc2O)cc1` (stereo unspecified), for which the cell number change worked out at 85.1%. The AC50 under setting [2] is 29.1 µM [rising, single point].

Turning to `CC(C)CCNC(=O)c1cccc(C(=O)NCCC(C)C)c1`, the AC50 runs as follows: under setting [2], 3.66 µM [rising, single point]; under setting [1], 6.51 µM [rising, partial curve].

`CC1CC(C)CN(CCCOc2ccccc2[N+](=O)[O-])C1` (stereo unspecified): the cell number change was 16.1%. Besides, the AC50 under setting [1] was 0.92 µM [rising, full curve, poor fit].

On to `COc1ccc(-c2nc(SC(C)C(=O)NCC3CCCO3)n[nH]2)cc1` (stereo unspecified), for which the cell number change came out at 55.9%. In addition, the AC50 under setting [2] is 16.4 µM [rising, single point].

For `CCNC(=S)N(CCO)Cc1cc2cc3c(cc2[nH]c1=O)OCO3`, the cell number change is -5.47%. Moreover, the AC50 under setting [1] was 29.1 µM [falling, single point].

With `COC(=O)c1ccccc1NC(=O)c1noc2c1CCC2`, the cell number change worked out at 52.4%. The AC50 under setting [2] was 4.11 µM [rising, full curve]. Also, under setting [1], the AC50 was 10.3 µM [rising, partial curve].

Regarding `C/C(=N\NC(=O)C1CC1(c1ccccc1)c1ccccc1)c1cccc([N+](=O)[O-])c1` (stereo unspecified), the cell number change was determined as 0.41%.

Turning to `C#CCOCCOCCOCCNc1nc(N2CCN(C(=O)CCCCCCCCCCNC(=O)Cn3cc(C[C@@H](C)O)nn3)CC2)nc(N2CCN(C(=O)CCCCCCCCCCNC(=O)[C@@H]([C@H](C)CC)n3cc(CCCCCN)nn3)CC2)n1`, the cell number change is -86.1%. Besides, under setting [2], the AC50 is 29.1 µM [falling, single point]. Besides, the AC50 under setting [1] is 0.164 µM [falling, full curve, poor fit].

In the case of `CCOc1cc(CNCc2ccncc2)cc(Cl)c1OC`, the cell number change turned out to be 22.2%. In addition, the AC50 under setting [1] was 29.1 µM [rising, single point].

In the case of `NS(=O)(=O)c1ccc(CCNC(=O)C2CCN(c3ncnc4c3nc3n4CCCCC3)CC2)cc1`, the cell number change is 42.2%. Under setting [1], the AC50 is 14.6 µM [rising, partial curve].

`N#CCCCn1c(O)c(N=NC(=O)C(O)c2ccccc2)c2ccccc21` (stereo unspecified): the cell number change worked out at 21.9%. Under setting [2], the AC50 was 2.06 µM [rising, full curve, poor fit]. Also, the AC50 under setting [1] is 18.4 µM [rising, single point].

As to `COc1cc(OC)c(-c2nc3c[n+](CC(=O)c4ccccc4)ccc3n2C)cc1OC`, the cell number change is -90.2%. Further, the AC50 under setting [2] is 32.6 µM [falling, single point].

One may read the AC50 as the concentration at which the activity in the assay is half-maximal. A lower AC50 goes with activity at low concentration.
